From PubChem BioAssay AID493014 (National Center for Advancing Translational Sciences (NCATS), 2011)
The other results are listed elsewhere or left out. The main result of the screen is listed elsewhere. These columns were measured beside it and carry no call. Compounds called inactive in the main read-out are mostly missing here. Potencies come from curve fits of mixed quality, noted in brackets.

Experiment: qHTS Assay to Find Inhibitors of Chronic Active B-Cell Receptor Signaling
Conditions: ABC-DLBCL IkBa-CBG/CBR reporter, luminescence ratio (green luciferase fused to IkBa over red control in TMD8 lymphoma cells), 4 h
Method in brief: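 TMD8 ABC-DLBCL cells carrying doxycycline-inducible green luciferase fused to IkappaBalpha plus unfused red luciferase were exposed to compounds (up to 46 uM) for 4 hrs at 37C. Activity came from the overlap-corrected green/red luminescence ratio.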

[1] = measured here: CBR red luminescence, cell number
[2] = measured here: IkBa-CBG green luminescence

For `Cn1c(CC(=O)Nc2ccccc2)nnc1SCC(=O)Nc1ccc(N2CCOCC2)cc1`, the AC50 [1] was 11.2 µM [falling, partial curve, poor fit].
In the case of `CCCCN=C1NN=C(c2ccc(C)c(C)c2)CS1`, the AC50 [1] is reported as 22.4 µM [falling, single point].
In the case of `CC(C)(C)NC(=O)CN(C(=O)CS(=O)CC(=O)Nc1ccc(F)cc1)c1ccc2c(c1)OCCO2` (stereo not given), the AC50 [1] is reported as 0.0891 µM [rising, full curve, poor fit].
For `COc1cccc(Nc2nc(-c3ccc(O)cc3)cs2)c1`, the AC50 [1] was 3.55 µM [falling, partial curve, poor fit].
With `CC(C)CN(C(=O)C(c1ccccc1)c1ccccc1)c1c(N)n(CC(C)C)c(=O)[nH]c1=O` the AC50 [1] was 12.6 µM [falling, partial curve].
With `CC(=O)c1cc2c(cc1NC(=O)c1ccco1)OCCO2` the AC50 [1] was 0.708 µM [falling, full curve, poor fit].
With `COc1ccc(-n2cnc3cc(C(=O)NCCC4=CCCCC4)ccc32)cc1` the AC50 [1] was 35.5 µM [rising, single point].
For `CCOc1cc(C2NC(=O)NC(C)=C2C(=O)OC(C)CC)cc(Br)c1O` (stereo not given), the AC50 [1] was 4.47 µM [rising, partial curve].
For `Cc1ccc(S(=O)(=O)N(C)C)cc1NC(=O)COC(=O)c1c(C)noc1C`, the AC50 [1] was 8.2 µM [falling, partial curve].
For `Nc1ncnc2c1ncn2[C@@H]1O[C@H](CNC(=O)[C@@H]2CCN2)[C@@H](O)[C@H]1O`, the AC50 [1] was 16.4 µM [rising, single point].
In the case of `C=CCOc1ccc(C2=NOC(C(=O)Nc3ccc4c(c3)OCCO4)C2)cc1OC` (stereo not given), the AC50 [1] is reported as 35.5 µM [falling, single point].
For `CC(C)CCOCC(=O)Nc1cccc(C(=O)O)c1`, the AC50 [1] was 10 µM [falling, partial curve].
For `Cc1cc2nc(C)n(CCCNC(=O)Nc3ccccc3)c2cc1C`, the AC50 [1] was 29.1 µM [rising, single point].
For `COc1ccccc1CC(=O)O/N=C(\N)c1ccccn1`, the AC50 [1] was 0.562 µM [rising, partial curve, poor fit].
For `CCOC(=O)c1ccc(NC(=O)c2cc(F)c(F)cc2Cl)cc1`, the AC50 [1] was 28.2 µM [rising, single point].
For `O=C(N/N=C1\CCCc2ccccc21)c1ccccc1[N+](=O)[O-]`, the AC50 [1] was 6.51 µM [falling, full curve].
With `Cc1ccc(N(CC(=O)NCc2ccco2)C(=O)CCC(=O)Nc2ccccn2)c(C)c1` the AC50 [1] was 2.82 µM [falling, partial curve, poor fit].
For `O=c1[nH]n2c(=O)c3c([nH]c2c1N=Nc1ccccc1)CCC3`, the AC50 [1] was 18.4 µM [falling, single point].
In the case of `O=C(c1ccco1)N1CCN(C(=O)c2cc3c(s2)-c2ccccc2OC3)CC1`, the AC50 [1] is reported as 29.1 µM [falling, single point].
For `COc1ccc(CN2CCN(C(=O)CC(C)C)CC2)cc1Br`, the AC50 [1] was 35.5 µM [falling, single point].
With `COc1ccc(/C=C2/SC(=O)N(CCC(=O)Nc3ccccc3C(=O)O)C2=S)cc1` the AC50 [1] was 1.41 µM [falling, full curve].
With `Cn1cccc1Cc1nnc(SCC(=O)NCc2ccc3c(c2)OCO3)n1CCc1ccccc1` the AC50 [1] was 18.4 µM [falling, partial curve, poor fit].
For `CCCN(CCC)C(=O)CSc1nc2ccccc2c(=O)n1C1CCCC1`, the AC50 [1] was 23.1 µM [falling, single point].
For `C/C(=N\NC(=O)c1cccc(N/N=C(\C)c2ccccc2)c1)c1ccccc1`, the AC50 [1] was 7.31 µM [falling, partial curve].
With `CC(=O)Nc1ccc(NC(=O)CSc2nc3ccccc3c(=O)n2CCCN2CCOCC2)cc1` the AC50 [1] was 5.8 µM [rising, full curve].
In the case of `Cc1cccc(CSc2nc3c(c(=O)n2C)SCC3)c1`, the AC50 [1] is reported as 12.6 µM [falling, single point].
In the case of `O=C(COC(=O)c1cnccn1)Nc1ccc2c(c1)OCO2`, the AC50 [1] is reported as 0.651 µM [rising, full curve, poor fit].
For `Cc1nn(CC(=O)Nc2nnc(C(C)C)s2)c(=O)c2ccccc12`, the AC50 [1] was 7.08 µM [rising, partial curve, poor fit].
In the case of `Cc1ccc(-n2c(C)cc(/C=C(\C#N)C(=O)NCC3CCCO3)c2C)cc1` (stereo not given), the AC50 [1] is reported as 3.16 µM [rising, single point].
For `c1ccc(-c2nc(NCc3ccco3)c3ccccc3n2)nc1`, the AC50 [1] was 35.5 µM [falling, partial curve, poor fit].
For `COc1ccc(C(=O)O/N=C(/c2ccccc2)c2ccncc2)cc1`, the AC50 [1] was 11.2 µM [falling, partial curve] and the AC50 [2] was 22.4 µM [falling, single point].
For `CCOc1ccc2nc(NCCCNS(=O)(=O)c3ccc(C)cc3)c(C#N)cc2c1`, the AC50 [1] was 18.4 µM [rising, partial curve, poor fit].
In the case of `CC1CCCN(S(=O)(=O)c2ccc3c(c2)C(C)(C)C(=O)N3C)C1` (stereo not given), the AC50 [1] is reported as 3.55 µM [rising, single point].
For `Cc1cc2nc(-c3ccc[nH]c3=O)n(Cc3ccc(F)cc3)c2cc1C`, the AC50 [1] was 6.31 µM [falling, full curve, poor fit].
For `COc1cccc(CNC(=O)c2ccc(C3SCCS3)cc2)c1`, the AC50 [1] was 5.62 µM [falling, partial curve].
In the case of `Cc1ccc2nc(NC(=O)C3CCCN(S(=O)(=O)c4cccc5nonc45)C3)sc2c1` (stereo not given), the AC50 [1] is reported as 0.631 µM [falling, full curve, poor fit].
In the case of `O=C1C=C(c2ccc(O)cc2)C[C@@H](c2ccc(Cl)cc2)C1`, the AC50 [1] is reported as 20.6 µM [falling, single point].
In the case of `c1ccc2[nH]c3cc4ncnc4cc3nc2c1`, the AC50 [1] is reported as 7.31 µM [falling, partial curve].
With `COc1cc(-c2ccc3oc(-c4ccsc4)cc(=O)c3c2)cc(OC)c1OC` the AC50 [1] was 20.6 µM [falling, partial curve, poor fit].
With `Cc1ccc(S(=O)(=O)c2nc(-c3ccccc3)oc2NCCN2CCOCC2)cc1` the AC50 [1] was 0.517 µM [falling, partial curve, poor fit].
For `Cc1cccc(N2CC(C(=O)Nc3ccc(N4CCOCC4)cc3)CC2=O)c1C` (stereo not given), the AC50 [1] was 4.11 µM [rising, full curve].
In the case of `CN(CC(=O)Nc1ccc(N2CCOCC2)cc1)C(=O)CSc1ccccc1F`, the AC50 [1] is reported as 0.058 µM [rising, full curve, poor fit].
In the case of `CC(C)NC(=S)N=Nc1c(O)[nH]c2ccc([N+](=O)[O-])cc12`, the AC50 [1] is reported as 6.31 µM [rising, partial curve] and the AC50 [2] is reported as 7.08 µM [falling, partial curve, poor fit].
With `COc1ccccc1CN(C)C(=O)c1cc(-c2cc(OC)c(OC)c(OC)c2)nc2ccccc12` the AC50 [1] was 14.1 µM [falling, single point].
With `N#CCCN(CCC#N)S(=O)(=O)c1ccc(C(=O)Nc2nc(-c3ccccc3)c(C(=O)c3ccccc3)s2)cc1` the AC50 [1] was 1.12 µM [falling, full curve, poor fit].
For `COc1ccccc1N1CCN(CC(=O)Nc2ccc(-n3cnnn3)cc2)CC1`, the AC50 [1] was 11.2 µM [rising, partial curve, poor fit].
For `CC(Nc1ncnc2c1cnn2-c1cccc(Cl)c1)c1ccccc1` (stereo not given), the AC50 [1] was 14.1 µM [falling, single point].
With `CCOc1cc(/C=C2\C(=O)N(c3ccc(C(N)=O)cc3)N=C2C)ccc1OC(=O)c1cccs1` the AC50 [1] was 3.55 µM [falling, partial curve, poor fit].
In the case of `COc1cccc(OC)c1C(=O)Nc1nc(COc2ccccc2)cs1`, the AC50 [1] is reported as 5.01 µM [falling, partial curve, poor fit].
In the case of `O=C(NC1CCCCC1)c1ccc(-c2ccccc2F)o1`, the AC50 [1] is reported as 20.6 µM [falling, partial curve, poor fit].
With `CCOC(=O)NC(NCc1ccccc1)(C(F)(F)F)C(F)(F)F` the AC50 [1] was 23.1 µM [falling, single point].
With `COc1ccc(-c2cnnc(N/N=C/c3ccc(O)c(OC)c3)n2)cc1` the AC50 [1] was 8.2 µM [falling, partial curve].
For `CCNc1nn2ccccc2c1/C=C(\C#N)C(=O)OCC`, the AC50 [1] was 2.51 µM [falling, full curve, poor fit].
In the case of `COc1ccc2cc(C3OCCO3)c(Cl)nc2c1`, the AC50 [1] is reported as 6.31 µM [rising, single point].
With `COc1ccc(/C=C2\SC(=S)N(CCCC(=O)Nc3ccc(O)cc3)C2=O)cc1` the AC50 [1] was 1.12 µM [falling, full curve].
With `CCOc1ccc(-c2csc(NC(=O)CSC3=NC(=O)CN3C(C)=O)n2)c2ccccc12` the AC50 [1] was 29.1 µM [rising, single point] and the AC50 [2] was 18.4 µM [falling, single point].
In the case of `Clc1ccc(Nc2ncnc3ccc(Br)cc23)cc1`, the AC50 [1] is reported as 35.5 µM [falling, single point].
For `CCN(C(=O)CSc1nc2ccccc2c(=O)n1-c1ccc(C)cc1)C1CCS(=O)(=O)C1` (stereo not given), the AC50 [1] was 11.2 µM [falling, partial curve, poor fit].
In the case of `Cc1noc(C)c1NC(=O)Nc1cccc2c1O[C@H](CN(C)C(=O)Nc1ccccc1)[C@@H](C)CN([C@H](C)CO)C2=O`, the AC50 [1] is reported as 0.184 µM [rising, full curve, poor fit].
With `Cc1ccccc1OC1C(=O)N(Cc2ccc3c(c2)OCO3)C1c1sccc1C` (stereo not given) the AC50 [1] was 7.08 µM [falling, partial curve, poor fit] and the AC50 [2] was 11.2 µM [rising, partial curve, poor fit].
With `COc1ccc(CCNC(=O)CCN2N=C(c3ccccc3)CCC2=O)cc1OC` the AC50 [1] was 15.8 µM [rising, single point].
